Measured values published in patent US12151028B2, “Drug delivery systems comprising solid solutions of weakly basic drugs” (Adare Pharmaceuticals, Inc., priority 2006, dated 2024).
≈ marks a conversion by molar mass, not a printed value.

Test: physchem

## COC(=O)C1=C(C)NC(C)=C(C(=O)OC)C1c1ccccc1[N+](=O)[O-] [Nifedipine, nifedipine]
pH 2.2, aqueous buffer
  solubility: 7.1 µg/mL (≈ 20.5 µM)
pH 2.88, aqueous buffer
  solubility: 5.7 µg/mL (≈ 16.5 µM)
pH 3.28, aqueous buffer
  solubility: 6.2 µg/mL (≈ 17.9 µM)
pH 3.9, aqueous buffer
  solubility: 5.7 µg/mL (≈ 16.5 µM)
pH 4.24, aqueous buffer
  solubility: 5.6 µg/mL (≈ 16.2 µM)
pH 4.45, aqueous buffer
  solubility: 5.1 µg/mL (≈ 14.7 µM)
pH 4.84, aqueous buffer
  solubility: 5.3 µg/mL (≈ 15.3 µM)
pH 5.22, aqueous buffer
  solubility: 5.3 µg/mL (≈ 15.3 µM)
pH 5.4, aqueous buffer
  solubility: 5.2 µg/mL (≈ 15 µM)
pH 5.83, aqueous buffer
  solubility: 5.4 µg/mL (≈ 15.6 µM)
pH 6.52, aqueous buffer
  solubility: 5.2 µg/mL (≈ 15 µM)
pH 7.53, aqueous buffer
  solubility: 5.2 µg/mL (≈ 15 µM)
